No constants are given. Whether binding was seen depends on the method and setting. In cells and extracts the contact can be indirect. Some results given as binding are weak or reduced against the parent protein; the word gives no strength.
How the values were obtained:
[1] = target: T1, cdk 4 (endogenous, A10 rat aortic VSM cells) (rat) (UniProt P35426); test: co-immunoprecipitation from A10 VSM cell lysate, FIG. 7
T1 sequence (looked up): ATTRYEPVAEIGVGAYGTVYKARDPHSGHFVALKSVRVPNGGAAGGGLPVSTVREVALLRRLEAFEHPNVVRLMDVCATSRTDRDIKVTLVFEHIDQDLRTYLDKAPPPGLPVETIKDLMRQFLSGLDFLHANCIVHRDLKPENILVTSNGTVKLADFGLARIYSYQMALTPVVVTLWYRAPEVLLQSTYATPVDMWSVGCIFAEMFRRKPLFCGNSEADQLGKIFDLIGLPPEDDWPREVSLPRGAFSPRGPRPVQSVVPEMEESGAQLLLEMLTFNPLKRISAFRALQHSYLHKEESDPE

Protein sequences, listed by entry. Tags and fused reporters are not part of them.
UniProt P39948: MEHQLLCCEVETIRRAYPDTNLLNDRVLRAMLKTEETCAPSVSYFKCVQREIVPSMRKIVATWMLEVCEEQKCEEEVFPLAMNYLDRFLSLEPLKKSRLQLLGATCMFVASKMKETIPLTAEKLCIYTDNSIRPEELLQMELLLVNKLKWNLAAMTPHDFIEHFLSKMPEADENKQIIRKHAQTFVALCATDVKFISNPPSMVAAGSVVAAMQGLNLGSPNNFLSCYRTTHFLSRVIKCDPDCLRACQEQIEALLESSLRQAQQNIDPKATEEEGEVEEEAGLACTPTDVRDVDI
UniProt P24385: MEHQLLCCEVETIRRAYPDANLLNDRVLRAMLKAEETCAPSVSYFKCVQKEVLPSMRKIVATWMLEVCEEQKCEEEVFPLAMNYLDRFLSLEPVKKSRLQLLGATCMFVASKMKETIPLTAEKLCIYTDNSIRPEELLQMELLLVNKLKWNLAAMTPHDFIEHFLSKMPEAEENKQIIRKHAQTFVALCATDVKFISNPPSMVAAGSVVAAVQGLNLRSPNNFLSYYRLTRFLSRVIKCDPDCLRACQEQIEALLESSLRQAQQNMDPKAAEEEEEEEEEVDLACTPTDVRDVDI

[2] = target: T1, cdk 4 (endogenous, A10 rat aortic VSM cells) (rat); test: co-immunoprecipitation from A10 VSM cell lysate: IP cyclin D1, immunoblot cdk 4
[3] = target: cdk4 (endogenous, A431 human squamous carcinoma cells) (human) (UniProt P11802); test: co-immunoprecipitation from A431 cell lysate, FIG. 12
[4] = target: cdk4 (endogenous, A431 human squamous carcinoma cells) (human) (UniProt P11802); test: co-immunoprecipitation from A431 cell lysate: IP cyclin D1, immunoblot cdk4

## cyclin D1 (endogenous, A10 rat aortic VSM cells) (from UniProt P39948 1-295)
[1]
  binding: binds
[2]
  binding: binds

## cyclin D1 (endogenous, A431 human squamous carcinoma cells) (from UniProt P24385 1-295)
[3]
  binding: binds
[4]
  binding: binds

From patent US20050043262A1, “Novel specific inhibitor of the cyclin kinase inhibitor p21Waf1/Cip1 and methods of using the inhibitor” (priority 2000, published 2005)
